Source: publication PMC6751662 (Cell Communication and Signaling : CCS, 2019)

Assay: general procedure: Fmoc solid-phase peptide synthesis; Rink amide resin
Conditions: whole synthesis, scale of the general procedure 15 μmol; for final HPLC purity: RP-HPLC

Row | Substance | final HPLC purity | difficulty met
1 | ADISTFASAINNAGRLRY-NH2 | >90% | Some crude peptides were partly insoluble
2 | AGSDPNFLRF-NH2 | >95% | –
3 | ALNRDSLVASLNNAERLRF-NH2 | >95% | Some crude peptides were partly insoluble
4 | APKPKFIRF-NH2 | >95% | –
5 | APLEGFEDMSGFLRTIDGIQKPRF-NH2 | >95% | Some crude peptides were partly insoluble
6 | APLEPVYPGDNATPEQMAQYAADLRRYINMLTRPRY-NH2 | >95% | –
7 | ASPSFIRF-NH2 | >95% | –
8 | EASAFGDIIGELKGKGLGGRMRF-NH2 | >95% | Some crude peptides were partly insoluble
9 | GLGPRPLAF-NH2 | >95% | –
10 | GLGPRPLRF-NH2 | >95% | Some crude peptides were partly insoluble
11 | KHEYLRF-NH2 | >95% | –
12 | NPENDTPFGTMRF-NH2 | >95% | Some crude peptides were partly insoluble
13 | RGPSGPLAF-NH2 | >95% | –
14 | RGPSGPLRF-NH2 | >95% | Some crude peptides were partly insoluble
15 | SEVPGVLRF-NH2 | >95% | Some crude peptides were partly insoluble
16 | SRTHRHSMEIRTPDINPAWYASRGIRPVGRF-NH2 | >95% | –
17 | TPDINPAWYASRGIRPVGRF-NH2 | >95% | –
18 | TSGPLGNLAEELNGYSRKKGGFSFRF-NH2 | >95% | –
